Measurements reported in paper PMC3189488 (British journal of haematology, 2010).

Test system: Hodgkin lymphoma (HL) cell lines
Assay: cells
Settings: Homo sapiens, 72 h, read-out: IC50 cell viability (MTS)

In the case of `O=C(CCCCCCC(=O)Nc1ccccc1)NO` [vorinostat, suberoylanilide hydroxamic], the IC50 is reported as 1800 to 2800 nM.
